# Where “and” joins values, the source holds several entries; their conditions need not be identical. Equal values may be shown once. Among all 410,000 compounds or so, about 18,000 (4.4%) were called active. The inconclusive results got no clear call from the source; some entries with a clear call stand among them for comparison. Rule as the data show it: active = activity change below about -60%; inconclusive = no clear call, values can overlap the other calls; inactive = above about -39%.
# Experiment: qHTS Assay for inhibitors of the human cytomegalovirus (HCMV)
# Conditions: HFF cells, HCMV-luciferase reporter, 72 h; at 57.5 µM; stronger effect = lower value
# How it was run: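 Cell-based, HFFs, 1000 cells/well, 16 h 37C; cpds in DMSO + HCMV-luc, MOI 1 PFU/cell; 72 h 37C; OneGlo luminescence after 5 min RT; norm. to buffer vs Salinomycin 10uM.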
# % is scaled to controls: 0 for no effect and ±100 for the full control effect.
row,SMILES,"activity change, negative = inhibition"
1,CCOC(=O)NC(C)N1C(=O)C2C3C=CC(C3)C2C1=O (stereo unspecified),inconclusive: -47.5%
2,COc1cc(NS(=O)(=O)c2ccc3[nH]c4c(c3c2)CCCC4)cc(OC)c1OC,inconclusive: -54.2%
3,Cc1cc2c(cc1S(=O)(=O)N(C)c1ccccc1)NC(=O)CO2,inconclusive: -41.6%
4,C/C(=N\Nc1ccc(S(N)(=O)=O)cc1[N+](=O)[O-])c1ccc2c(c1)OCO2,inconclusive: -57.6%
5,Cc1cccc(C(=O)N2CCCC(CCC(=O)N3CCN(c4ccccn4)CC3)C2)c1C (stereo unspecified),active: -86.1%
6,O=C(Nc1cccc(Cl)c1)c1cccc(N2C(=O)C3CC=CCC3C2=O)c1 (stereo unspecified),inconclusive: -43.9%
7,COc1ccc(CNC(=O)CCC2N=C3c4ccccc4N=C(SCc4ccc(F)cc4)N3C2=O)cc1 (stereo unspecified),inactive: 17.1%
8,CC(=O)Nc1ccc(-c2cc(-c3ccc(NC(C)=O)cc3)nc(-c3ccccc3)n2)cc1,inconclusive: -40.6%
9,O=C(NC1CCCCC1)c1cc2cc(Br)ccc2o1,inconclusive: -52.9%
10,Cc1nc2ccccn2c1C(=O)NN=C1CCCC1,inconclusive: -41.1%
11,Cn1c(/C=N/c2nc3ccccc3[nH]2)nc2ccccc21,active: -104%
12,COc1ccccc1-c1cc(C(=O)Nc2c(C)n(C)n(-c3ccccc3)c2=O)no1,inconclusive: -48.8%
13,Cc1ccc2nc(NC(=O)c3ccc(S(=O)(=O)N4CCCc5ccccc54)cc3)sc2c1,inconclusive: -46.8% and active: -90%
14,O=C1c2ccc3c4c(ccc(c24)C(=O)N1c1cccc(O)c1)C(=O)N(c1cccc(O)c1)C3=O,active: -88.1%
15,COc1cc(NC(=O)C2=CC(c3ccc(C)cc3)=NS(=O)(=O)N2C)cc(OC)c1OC,inactive: 8.94%
16,COc1ccc(-c2cc(C(=O)Nc3ccccc3N3CCOCC3)c3ccccc3n2)cc1OC,inconclusive: -46.4%
17,CCOC(=O)c1ccc(NC(=O)c2ccc(OC(C)C)c(OC)c2)cc1,inactive: 14.4%
18,Cc1cc(C)c2c(n1)sc1c(=O)n(Cc3ccc(F)cc3)cnc12,inconclusive: -41.7%
19,Cc1ccc(Cn2cnc3c(cnn3C(C)(C)C)c2=O)cc1,inconclusive: -58.7%
20,CCCCCc1ccc(OCCCC[n+]2cccc(C)c2)c(CCCCC)c1,active: -102%
21,Cc1ccc([N+](=O)[O-])cc1NC(=O)Cc1ccc(F)cc1,inactive: -20.4%
22,O=C(Cc1ccccc1)NN1C(=O)C2C3C=CC(C3)C2C1=O (stereo unspecified),inconclusive: -45.2%

# Sorted by SMILES length (rising): 4 of the compounds above.
row,SMILES,"activity change, negative = inhibition"
22,O=C(Cc1ccccc1)NN1C(=O)C2C3C=CC(C3)C2C1=O (stereo unspecified),inconclusive: -45.2%
21,Cc1ccc([N+](=O)[O-])cc1NC(=O)Cc1ccc(F)cc1,inactive: -20.4%
3,Cc1cc2c(cc1S(=O)(=O)N(C)c1ccccc1)NC(=O)CO2,inconclusive: -41.6%
14,O=C1c2ccc3c4c(ccc(c24)C(=O)N1c1cccc(O)c1)C(=O)N(c1cccc(O)c1)C3=O,active: -88.1%

# Next part.

row,SMILES,"activity change, negative = inhibition"
1,Cc1cc(NCCCn2ccnc2)n2nc(-c3ccc(F)cc3)cc2n1,inactive: 95.6%
2,CN(C)C=Nc1ccc2nc3c(cc2c1)[nH]c1ccccc13,inactive: 10.4%
3,CCOC(=O)c1c(C)[nH]c(CCC(=O)NCc2cccc(OC)c2)c1C,inconclusive: -41.4%
4,CCc1cc2c3c(c1)C1(C(=O)N3C(C)(C)CC2C)C(C#N)=C(N)N2C(=C1C#N)Nc1ccccc12 (stereo unspecified),inconclusive: -43%
5,CN(C)S(=O)(=O)c1ccc(-c2csc(-c3cccnc3)n2)cc1,inactive: 0%
6,Cc1ccc(Cl)cc1N1CCN(C(=O)c2ccc(CS(=O)(=O)c3ccc(Br)cc3)o2)CC1,active: -68%
7,C(#Cc1ccccc1)C[N+]1(CC#Cc2cccc3ccccc23)CCOCC1,inconclusive: -49.4%
8,O=C(Nc1ccc(Cl)cc1)N1CCN(Cc2ccc3c(c2)OCO3)CC1,inconclusive: -50.6%
9,COc1ccc(NC(=O)Cc2ccc(Cl)cc2Cl)cn1,active: -101%
10,Cc1ccc(SCCC(=O)N2CCOCC2)cc1,inactive: -27.2%
11,Cc1ccc(NC(=O)CSC2=C(C#N)C(c3ccc4c(c3)OCO4)C3=C(CCCC3=O)N2)c(C)c1 (stereo unspecified),active: -64.6%
12,N#CCSc1n[nH]c2nc3c(c(=O)n12)C1(CCCCC1)Cc1ccccc1-3,inconclusive: -47.2%
13,CN1CCN(NC(=O)/C=C/c2cccc([N+](=O)[O-])c2)CC1,inconclusive: -53.1%
14,COC(=O)N/N=C\c1ccc(OC(=O)c2ccco2)cc1,inactive: -17.3%
15,O=[N+]([O-])c1ccc2oc(/C=C/c3ccc(O)cc3)nc2c1,inconclusive: -53.4%
16,CCC(C)C(=O)N1c2ccccc2C(=C2SC(C(=O)OC)=C(C(=O)OC)S2)C(=S)C1(C)C (stereo unspecified),inactive: -24.6%
17,CN(c1ccc(C(=O)Nc2cccnc2)cc1)S(=O)(=O)c1ccccc1,active: -70.8%
18,CC1(C)CC(=O)C(C=NC2CCCCC2)=C(O)C1,inconclusive: -40.7%
19,Cc1ccc2nc(C3CCN(C(=O)NCc4ccccc4)CC3)[nH]c2c1,active: -88.2%
20,CCc1cccc(C)c1NC(=O)CN(C)Cc1cccc(F)c1,inconclusive: -43.4%
21,O=C(O)c1ccccc1-c1ccc(C=C2C(=O)N(c3ccccc3)C(=S)N(c3ccccc3)C2=O)o1,inactive: 5.29%
22,Nc1nc(SCC(=O)Nc2ccc(Cl)cn2)n[nH]1,inactive: -38.6%

row,SMILES,"activity change, negative = inhibition"
1,Nc1ccc(N2CCN(c3ccc(Cl)c(Cl)c3)CC2)cc1,active: -85.2%
2,CC1=N/C(=C/c2cccnc2)C(=O)O1,inconclusive: -41.8%
3,COc1ccc(C(=O)NCCc2csc(-c3ccc(Cl)cc3)n2)cc1,inconclusive: -52.8%
4,CC(=O)CC1c2cc(F)ccc2C=C(c2ccsc2)N1c1ccc(C#Cc2cncn2C)cc1 (stereo unspecified),inconclusive: -54.9%
5,O=C(NCC1CCCO1)/C(=C/c1ccccc1)NC(=O)c1ccccc1 (stereo unspecified),inconclusive: -46.4%
6,COc1ccc2[nH]c(C)c(CCNC(=S)Nc3cc(C)cc(C)c3)c2c1,inconclusive: -43.3%
7,Cc1cc2c(cc1C)N1C(=O)c3cc4ccccc4cc3NC(=O)C1C(=O)N2 (stereo unspecified),active: -73.2%
8,Brc1ccccc1OCCCCn1cnc2ccccc21,active: -60.2%
9,COc1ccc(CCNC(=O)c2ccc3c(c2)N(Cc2ccccc2Cl)C(=O)c2ccccc2S3)cc1OC,inconclusive: -55.2%
10,NC(=O)Nc1ccc(C(=O)OCC(=O)NC2CCCCC2)cc1,inconclusive: -43.7%
11,COc1ccc(-c2nnn(CC(=O)N(Cc3ccc(F)cc3)C(C(=O)NC3CCCC3)c3ccc(F)cc3)n2)cc1 (stereo unspecified),inconclusive: -59.9%
12,COc1ccc(C(=O)N/N=C2\CCS(=O)(=O)c3ccc(F)cc32)cc1OC,inconclusive: -44.7%
13,CCOc1cc(S(=O)(=O)NCc2ccco2)c(OCC)cc1-n1cnnn1,inconclusive: -42.9%
14,CN(C)c1ncc(S(=O)(=O)c2ccc(Cl)cc2)c(-c2ccc(Cl)cc2Cl)n1,inconclusive: -50.7%
15,COc1ccc(F)cc1-c1cc(NC=O)c2ncc(-c3cc(OC)c(OC)c(OC)c3)n2c1,active: -76.4%
16,O=C(COc1ccccc1F)Nc1nnc(SCc2cc(=O)n3ccccc3n2)s1,inactive: 7.72%
17,O=S(=O)(CCc1nc2ccccc2[nH]1)c1ccc(Cl)cc1,active: -60.7%
18,Cc1ccccc1Cn1nnc2sc3c(c2c1=O)CCCC3,inconclusive: -49.9%
19,O=C(CN1CCCCC1)NCC(=O)Nc1ccc(Br)cc1C(=O)c1ccccc1,inactive: 12.9%
20,CC(Sc1ccc(Cl)cc1)C(=O)Nc1ccccc1C(=O)N1CCOCC1 (stereo unspecified),inconclusive: -48.9%
21,O=C(c1ccc2c(c1)OCO2)C1CCCN(Cc2cc(F)ccc2-n2cccn2)C1 (stereo unspecified),inactive: 31.2%
22,CCOc1cc2c(cc1/C=C/c1noc(C)c1[N+](=O)[O-])OC(C)C2 (stereo unspecified),active: -60.8%

row,SMILES,"activity change, negative = inhibition"
1,O=C(O)CC/C(=N\NC(=O)c1ccccc1Br)c1ccccc1,inconclusive: -48.7%
2,CCn1c2ccccc2c2cc(NC(=O)c3cccc([N+](=O)[O-])c3C)ccc21,inconclusive: -41.5%
3,CSc1ccccc1NC(=O)c1cccc(S(=O)(=O)N2CCN(C)CC2)c1,inactive: 51.2%
4,COc1ccc(-c2ccc(C(=O)Nc3cccc(Oc4ccccc4)c3)c3occc23)c(C)c1,inconclusive: -47.2%
5,O=S(=O)(NCCN1CCCC1)c1ccc(Br)cc1,inactive: 7.82%
6,CCc1ccc(-c2cc(C)no2)cc1S(=O)(=O)NCc1ccco1,inconclusive: 0%
7,CCc1cccc(NC(=O)Cc2ccc(OC)c(OC)c2)c1,active: -81.7%
8,CCOC(=O)[C@H]1[C@H]2COc3ccc(C)cc3[C@@H]2N2C(=O)c3cc(C)ccc3NC(=O)[C@@]12C,inactive: -5.48%
9,O=C(c1ccc2[nH]c(=O)c(=O)[nH]c2c1)N1CCN(Cc2ccccc2)CC1,inconclusive: -46.3%
10,CCc1c(C)nc2ncnn2c1N1CCC(C(=O)NCc2cccc(OC)c2)CC1,inconclusive: -49.9%
11,Cc1ccc(S(=O)(=O)N2CCCc3cc(NS(=O)(=O)c4ccc(F)cc4)ccc32)cc1,inconclusive: -42.9%
12,CCSc1nnc(NC(=O)CCN2C(=O)C3CCCCC3C2=O)s1 (stereo unspecified),inactive: -0.303%
13,Cc1ccc(S(=O)(=O)Cn2nnnc2C(c2ccccc2)N2CCN(c3ncccn3)CC2)cc1 (stereo unspecified),inactive: 0.842%
14,Cc1cc(-c2ccc(Cl)cc2)n2ncnc2n1,inconclusive: -56%
15,CS(=O)(=NS(=O)(=O)c1ccc(Cl)cc1)c1ccccc1 (stereo unspecified),inconclusive: -58.8%
16,CCOc1ccccc1N1CC(C(=O)Nc2cc(S(=O)(=O)N3CCOCC3)ccc2OC(C)C)CC1=O (stereo unspecified),inactive: 16%
17,CCOC(=O)CCNC(=O)N1CCCC(Cc2ccccc2)(C(=O)OCC)C1 (stereo unspecified),inactive: 26.9%
18,CCOc1ccccc1NC(=S)Nc1ccc2cn[nH]c2c1,inconclusive: -49.3%
19,NC(=O)C1CCN(C(=O)CCC(=O)c2ccc(F)cc2)CC1,inconclusive: -42.9%
20,CCOC(=O)C1C(c2cccs2)NC(=O)NC1(O)C(F)(F)F (stereo unspecified),inconclusive: -44.4%

# Source: PubChem BioAssay AID1259415 (National Center for Advancing Translational Sciences (NCATS), 2018)
